According to PubChem BioAssay AID2685 (National Center for Advancing Translational Sciences (NCATS), 2010):
This is one part of the list. The main result of the screen is listed elsewhere. These columns were measured beside it and carry no call. The list favours compounds with an active or inconclusive main result. Words in brackets tell the shape of the fitted curve; partial curves, single points and poor fits give uncertain potencies.

Experiment: qHTS Assay for Lipid Storage Modulators in Drosophila S3 Cells;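 for cell number change: cells counted by Cell Tracker Red CMTPX staining in the red channel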
Conditions: BODIPY lipid droplet fluorescence, 18-24 h; for cell number change: measured here: cell count max response, cells fed with added oleic acid
Method in brief: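 Laser-scanning cytometry quantifies lipid droplet accumulation (500–530 nm total intensity; droplet/cell object ratio) in oleic acid-fed (400 uM added) Drosophila S3 cells treated with a concentration series. 20 uM Triacsin C defined 100% inhibition.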

[1] = measured here: lipid fluorescence (Fed channel) AC50, cells fed with added oleic acid
[2] = measured here: cell number channel AC50, cells fed with added oleic acid

| Compound | cell number change [%] | AC50 [1] | AC50 [2] |
| --- | --- | --- | --- |
| CCc1cccc(C)c1NC(=O)c1ccc(CN2CCc3ccccc3C2)cc1 | 16.8 | – | – |
| CN(C)c1ccc(NC(=O)c2ccc3nc[nH]c3c2)cc1 | 4.93 | – | – |
| O=C(Cc1ccccc1)Nc1nonc1NC(=O)c1ccccc1 | 6.83 | 0.206 µM [falling, full curve, poor fit] | – |
| COC(=O)c1cc(-c2ccc(OC)c(OC)c2)n[nH]1 | – | – | 1.64 µM [rising, partial curve] |
| O=C(Cc1ccccc1)Nn1c(-c2ccccc2)nc2ccccc2c1=O | 1.1 | 3.26 µM [falling, partial curve, poor fit] | – |
| CC(C)CC(=O)NC(=S)NNC(=O)c1ccc([N+](=O)[O-])cc1 | -5.14 | – | – |
| Cc1cccc(NS(=O)(=O)c2ccc3c(c2)CCC(=O)N3)c1 | 1.35 | 0.116 µM [rising, full curve, poor fit] | – |
| O=C(Nc1cccc(C(=O)O)c1)Nc1ccc2c(c1)OCO2 | -0.495 | 29.1 µM [rising, single point] | – |
| O=C1CC(c2ccco2)Cc2nc(N3CCc4ccccc4C3)ncc21 (stereo not drawn) | – | 29.1 µM [rising, single point] | 6.51 µM [rising, single point] |
| O=C(COC(=O)Cn1cnc2ccccc2c1=O)NCc1ccccc1Cl | 39.1 | 0.00461 µM [rising, full curve, poor fit] | 0.00461 µM [rising, full curve, poor fit] |
| COc1ccc(S(=O)(=O)NCC2CCCN(C(=O)CCC(F)(F)F)C2)cc1 (stereo not drawn) | 4.58 | – | – |
| COc1ccc(C(=O)C(c2ccccc2)N2CCOCC2)cc1 (stereo not drawn) | -26 | 0.0461 µM [rising, single point] | 6.51 µM [falling, single point] |
| CCCCNCc1ccc(OCc2ccc(Cl)nc2)c(OC)c1 | -1.42 | 0.146 µM [falling, full curve, poor fit] | – |
| CC(c1ccccc1)N1CC(C(=O)Nc2nccs2)CC1=O (stereo not drawn) | -23.7 | 15.8 µM [rising, single point] | – |
| COCc1c(C(=O)N2CCN(c3ccc(C(F)(F)F)cn3)CC2)oc2ccccc12 | – | – | 0.092 µM [falling, full curve, poor fit] |
| COc1cccc(-c2cc(C(=O)NCCCN3CCOCC3)no2)c1 | 22.6 | – | – |
| O=C(Nc1cc(F)c(Br)cc1F)c1ccc(Cl)cc1 | -9.42 | 6.51 µM [falling, single point] | – |
| O=C(O)c1ccc(N2C(=O)c3ccc(C(=O)c4cccc([N+](=O)[O-])c4)cc3C2=O)cc1 | -9.74 | – | – |
| CC(C)(C)c1nc(S(=O)(=O)c2ccc(Cl)cc2)c(N2CCOCC2)o1 | 16 | 29.1 µM [falling, single point] | – |
| COc1ccc(OC)c(CC(NC(C)=O)C(=O)NC2CCN(c3nc(C)cc(C)c3C#N)CC2)c1 (stereo not drawn) | 5.94 | 0.58 µM [rising, single point] | – |
| O=C(CSc1nnc(CNC(=O)c2ccco2)o1)Nc1cccc(Cl)c1 | -1.48 | 29.1 µM [rising, single point] | – |

| Compound | cell number change [%] | AC50 [1] | AC50 [2] |
| --- | --- | --- | --- |
| Cc1ccc(NCCC(=O)c2ccccc2)cc1Cl | -2.23 | 0.00517 µM [falling, full curve, poor fit] | – |
| Cc1cc(NC(=O)CCC(=O)N(CC(=O)NC2CCCC2)Cc2ccc3c(c2)OCO3)no1 | 20.1 | – | – |
| CCCCCn1c(S(=O)(=O)O)nc2ccccc21 | 3.67 | 6.51 µM [falling, single point] | 6.51 µM [falling, single point] |
| NC(=O)c1ccc(NC(=O)COC(=O)CCN=C2NS(=O)(=O)c3ccccc32)cc1 | 5.94 | 6.51 µM [falling, single point] | – |
| COc1ccc(N(CC(O)Cn2c(C)nc3ccccc32)S(=O)(=O)c2ccccc2)cc1 (stereo not drawn) | 15.9 | 1.46 µM [rising, partial curve] | 7.31 µM [rising, single point] |
| Cc1ccccc1N1CCN(Cc2ccc([N+](=O)[O-])o2)CC1 | 15.5 | – | – |
| CCc1[nH]nc2c1C(c1ccc(Br)s1)C(C#N)=C(N)O2 (stereo not drawn) | – | 2.06 µM [rising, partial curve] | – |
| Cc1ccc(C2CC(=O)N3CN(c4ccc(Br)cc4)CSC3=C2C#N)o1 (stereo not drawn) | 92 | – | 18.4 µM [rising, single point] |
| COc1cccc(/C=N\NC(=O)C2C(=O)NCC2c2ccccc2)c1O (stereo not drawn) | -4.83 | 6.51 µM [rising, single point] | – |
| N=C1c2ccccc2CN1NC(=O)COc1ccc(Cl)cc1 | -12.6 | 0.651 µM [falling, full curve, poor fit] | 0.731 µM [falling, full curve, poor fit] |
| Cc1ccc(NS(=O)(=O)c2cccc(C(=O)N/N=C/c3c(C)nn(-c4ccccc4)c3N3CCCC3)c2)c(C)c1 | 10.1 | 29.1 µM [rising, single point] | – |
| O=C(NC(=S)NCCc1ccccc1)c1ccco1 | -15.3 | 6.51 µM [falling, single point] | – |
| O=C(NC1CCCCC1)C(c1ccco1)N(Cc1cccs1)C(=O)Cn1nnc2ccccc21 (stereo not drawn) | -30.2 | – | 29.1 µM [falling, single point] |
| COc1ccc2[nH]c(=O)c(C(c3nnnn3C3CCCC3)N(C)C3CCCCC3)cc2c1 (stereo not drawn) | -6.95 | 0.0326 µM [falling, full curve] | – |
| CCOC(=O)c1c(NC(=O)CNC2CCCc3ccccc32)sc(C(N)=O)c1C (stereo not drawn) | 19.1 | 0.411 µM [falling, partial curve, poor fit] | – |
| CCOC(=O)c1c(NC(=O)CN(C)C2CCN(C)CC2)sc(C(=O)Nc2ccccc2)c1C | 15 | – | – |
| CCSC(SCC)[C@H](O)[C@@H](O)[C@H](O)[C@H](O)CO | 1.63 | 6.51 µM [rising, single point] | – |
| O=C(COc1ccccc1N1C(=O)C2C3C=CC(C3)C2C1=O)c1ccccc1 (stereo not drawn) | 7.17 | 0.00517 µM [falling, full curve, poor fit] | – |
| Cc1ccc(SC(C)C(=O)Nc2ccncc2)cc1 (stereo not drawn) | 7.74 | 29.1 µM [rising, single point] | – |
| C[C@@H]1CC=C[C@H]2[C@H]1C(=O)N(Cc1ccccc1)[C@H]2c1ccc(C(F)(F)F)cc1 | -43.5 | 29.1 µM [falling, single point] | 32.6 µM [falling, single point] |
| Cc1ccc(-c2noc(CNC(=O)COc3ccccc3C)n2)cc1 | -20.4 | 29.1 µM [falling, single point] | – |

Shown as tab-separated lines: entries from further up.
Compound	cell number change [%]	AC50 [1]	AC50 [2]
COc1ccc(OC)c(CC(NC(C)=O)C(=O)NC2CCN(c3nc(C)cc(C)c3C#N)CC2)c1 (stereo not drawn)	5.94	0.58 µM [rising, single point]	–
O=C(CSc1nnc(CNC(=O)c2ccco2)o1)Nc1cccc(Cl)c1	-1.48	29.1 µM [rising, single point]	–
Cc1ccc(NCCC(=O)c2ccccc2)cc1Cl	-2.23	0.00517 µM [falling, full curve, poor fit]	–

(continued)

| Compound | cell number change [%] | AC50 [1] | AC50 [2] |
| --- | --- | --- | --- |
| CCOC(=O)C1=C(C)NC(=S)N(C(C)=O)C1c1ccc(Cl)cc1 (stereo not drawn) | -44.1 | 29.1 µM [falling, single point] | 32.6 µM [falling, single point] |
| O=C(/C=C/c1ccc(F)cc1)Nc1ccc(S(=O)(=O)N2CCOCC2)cc1 | -5.79 | 7.94 µM [falling, partial curve, poor fit] | – |
| COc1cccc(C(=O)NCC2CCCN(C(=O)c3ccc(C=O)cc3)C2)c1OC (stereo not drawn) | -11.8 | 35.5 µM [falling, single point] | – |
| Cc1cc(S(=O)(=O)N(Cc2ccccn2)Cc2ccco2)ccc1-n1cnnn1 | -22 | 3.66 µM [falling, full curve, poor fit] | 0.00461 µM [falling, full curve, poor fit] |
| O=C1CC(c2ccccc2)Cc2nc(NCc3ccco3)ncc21 (stereo not drawn) | -2.62 | 5.8 µM [rising, single point] | – |
| O=C1N(Cc2cccc(Cl)c2)C[C@@H]2C[C@@H](c3ccsc3)N3CCC[C@@]123 | -25 | 4.11 µM [falling, full curve, poor fit] | – |
| CN1C(C)(C)CC(=NOC(=O)c2ccccc2)CC1(C)C | 12 | 16.4 µM [rising, partial curve, poor fit] | – |
| CC(C)Cn1c(=O)c2c(nc3n2CCCN3CCc2ccccc2)n(C)c1=O | -15.2 | – | – |
| Cc1cc(C)n(CC(O)COCc2ccccc2)n1 (stereo not drawn) | -18.5 | 0.0326 µM [falling, full curve, poor fit] | 0.00517 µM [falling, full curve, poor fit] |
| Cc1cc(C)nc(NS(=O)(=O)c2ccc(NC(=O)C(C)Oc3ccccc3F)cc2)n1 (stereo not drawn) | 2.25 | 29.1 µM [rising, single point] | – |
| CC(C)(C)c1cccc(Cn2nnc3ccccc32)c1O | -83.4 | – | 23.1 µM [falling, partial curve] |
| CCC(Sc1nc2ccc(N)cc2s1)C(=O)Nc1nccs1 (stereo not drawn) | – | 1.16 µM [rising, full curve] | – |
| COC(=O)C1=C(C(=O)OC)[C@@H]2N(C)c3ccccc3[C@@]23C[C@@H](C(=O)OC)N(C(C)=O)C3=N1 | -0.344 | 0.82 µM [falling, single point] | – |
| COc1ccc(CCNC(=S)c2ccccc2)cc1OC | -18.1 | – | – |
| Brc1ccccc1C1CC(c2ccccc2)=Nc2ccccc2N1 (stereo not drawn) | – | – | 6.51 µM [rising, single point] |
| Cc1ccc2c(=O)cc(C(=O)NC3CCS(=O)(=O)C3)oc2c1C (stereo not drawn) | 14.3 | 10.3 µM [falling, single point] | – |
| COC(=O)CCCCCC(CCC(=O)OC)NC(C)=O (stereo not drawn) | 1.48 | – | – |
| Cc1cccc(C2NC(c3cccc(C)c3)C([N+](=O)[O-])C(C)(C)C2[N+](=O)[O-])c1 (stereo not drawn) | – | 2.91 µM [falling, partial curve] | – |
| COc1ccc2c(Cl)c(-c3nnc(SCC(=O)c4ccccc4)n3C)sc2c1 | 11.1 | 16.4 µM [falling, single point] | – |
